Experimental data published in PubChem BioAssay AID210 (DTP/NCI, 2004).
The list shows only some results of the screen, not a fair sample: it gathers tests that were run many times, whatever their T/C, doses with no T/C, and many T/C values between a quarter and a half above the control. Further doses and runs are listed elsewhere. T/C: endpoint of the treated group in % of that of the vehicle group. Some entries give survivors of the animals treated and no T/C: the source files T/C as zero there, which appears to mark a toxic dose or a test without result, not a measured value. Some doses without a T/C left all or most animals alive at the check, yet need not have been tolerated: survival well below the control is almost never listed, so the zero probably covers shortened survival too. Survivors were counted at the toxicity check, usually on the fifth day, unless a day is given; later deaths do not show. Schedule codes are those of the source, taken here to give the interval after Q, in days (D) or hours (H), and the number of doses after X. For survival time, this PubChem deposit counts one and a half times the control or more as active, and values a quarter to a half above the control carry no call in these data; other NCI protocols may use other cut-offs.

Tested on: CD2F1 mice, ip Colon 26 adenocarcinoma, median survival T/C
Assay: NCI In Vivo Anticancer Drug Screen. Data for tumor model Colon 26 Adenocarcinoma (intraperitoneal) in CD2F1 (CDF1) mice
Settings: T/C endpoint: median survival time, higher T/C = longer survival
Description: The antitumor activity of compounds was measured in mice bearing transplantable tumors. Survival or tumor size were measured and the results are expressed as the measurement made in the treated group (T) divided by the measurement made in the vehicle treated control group (C). The tumor model used in this assay is Colon 26 Adenocarcinoma (intraperitoneal) in CD2F1 (CDF1) mice

[1] = dose: 100.0 mg/kg/injection, schedule: Q04DX003 (ip), vehicle: saline with Tween-80
[2] = dose: 200.0 mg/kg/injection, schedule: Q04DX003 (ip), vehicle: saline with Tween-80
[3] = dose: 400.0 mg/kg/injection, schedule: Q04DX003 (ip), vehicle: saline with Tween-80
[4] = dose: 200.0 mg/kg/injection, schedule: Q04DX003 (ip), vehicle: saline

With `COc1cccc2c1C(=N)c1c(O)c3c(c(O)c1C2=O)C[C@@](O)(C(C)=O)C[C@@H]3OC1CC(N)C(O)C(C)O1` (some centres undefined) the survivor count (dose: 16.0 mg/kg/injection, schedule: Q04DX003 (ip), vehicle: water) was 8 of 8.

`Nc1nc([Se])c2ncn(C3OC(CO)C(O)C3O)c2n1` (centres undefined) was tested, and the survivor count (dose: 128.0 mg/kg/injection, schedule: Q04DX003 (ip), vehicle: saline) was 0 of 10 and the survivor count (dose: 128.0 mg/kg/injection, schedule: Q04DX003 (ip), vehicle: suspension in saline) was 3 of 10.

For `CCC[CH2][Hg][Cl]`, the survivor count (dose: 12.5 mg/kg/injection, schedule: Q04DX003 (ip), vehicle: Klucel (hydroxypropylcellulose) (HPC)) was 8 of 10, the survivor count (dose: 25.0 mg/kg/injection, schedule: Q04DX003 (ip), vehicle: Klucel (hydroxypropylcellulose) (HPC)) was 1 of 10 and the survivor count (dose: 50.0 mg/kg/injection, schedule: Q04DX003 (ip), vehicle: Klucel (hydroxypropylcellulose) (HPC)) was 0 of 10.

`Cc1cn(C2CC(O)C(CO)O2)c(=O)[nH]c1=O` (centres undefined) was tested, and the survivor count (dose: 64.0 mg/kg/injection, schedule: Q04DX002 (ip), vehicle: saline) was 10 of 10, the survivor count (dose: 256.0 mg/kg/injection, schedule: Q04DX002 (ip), vehicle: saline) was 10 of 10 and the survivor count (dose: 512.0 mg/kg/injection, schedule: Q04DX002 (ip), vehicle: saline) was 10 of 10.

`NC(C/[N+]([O-])=N/O)C(=O)O` (centres undefined) was tested, and the survivor count (dose: 100.0 mg/kg/injection, schedule: Q01DX010 (ip), vehicle: alkali diluted with saline) was 8 of 8.

`O=Cc1ccc(C(Cl)(Cl)Cl)cc1` was tested, and the T/C [1] was 126 % of control, the T/C [2] was 145 % of control and the survivor count [3] was 5 of 10.

`C1CN(P2(N3CC3)=NP(N3CC3)(N3CC3)=NP(N3CC3)(N3CC3)=N2)CCO1` (centres undefined) was tested, and the T/C (dose: 25.0 mg/kg/injection, schedule: Q04DX003 (ip), vehicle: saline) was 135 % of control, the survivor count (dose: 100.0 mg/kg/injection, schedule: Q04DX003 (ip), vehicle: saline) was 8 of 10 and the survivor count [4] was 6 of 10.

With `CC(C)CCCCCCCCCCCCC(=O)NCC(=O)NC1C(O)C(O)C(Nc2ncnc3nc[nH]c23)OC1C(O)CO` (centres undefined) the T/C (dose: 8.0 mg/kg/injection, schedule: Q04DX003 (ip), vehicle: Klucel (hydroxypropylcellulose) (HPC)) was 138 % of control and the survivor count (dose: 16.0 mg/kg/injection, schedule: Q04DX003 (ip), vehicle: Klucel (hydroxypropylcellulose) (HPC)) was 10 of 10.

For `O=C([O][Hg][CH2]C1COC([CH2][Hg][O]C(=O)c2ccccc2)CO1)c1ccccc1` (centres undefined), the survivor count (dose: 150.0 mg/kg/injection, schedule: Q04DX003 (ip), vehicle: saline with Tween-80) was 0 of 10 and the survivor count (dose: 300.0 mg/kg/injection, schedule: Q04DX003 (ip), vehicle: saline with Tween-80) was 0 of 10.

`COCC1OC(OC2C3=C(C(C)C)CCC3(C)/C=C3\C(CCC3(O)COC)C(C)C2O)C(O)C2OC3OC12OC3(C)C1CO1` (centres undefined) was tested, and the survivor count (dose: 1.56 mg/kg/injection, schedule: Q04DX002 (ip), vehicle: Klucel (hydroxypropylcellulose) (HPC)) was 10 of 10 and the survivor count (dose: 3.12 mg/kg/injection, schedule: Q04DX002 (ip), vehicle: Klucel (hydroxypropylcellulose) (HPC)) was 10 of 10.

In the case of `CCC1(O)CC(OC2CC(N(C)C)C(OC3CC(O)C(OC4CCC(=O)C(C)O4)C(C)O3)C(C)O2)c2c(cc3c(c2O)C(=O)c2c(O)ccc(O)c2C3=O)C1C(=O)OC` (centres undefined), the T/C (dose: 6.0 mg/kg/injection, schedule: Q04DX003 (ip), vehicle: saline with Tween-80) is reported as 133 % of control.

`CN1C(=O)CC2(CCN(CCCC(=O)c3ccc(F)cc3)CC2)C1=O` was tested, and the survivor count [1] was 3 of 10.

For `[I][Hg][CH2]C1COC([CH2][Hg][I])CO1` (centres undefined), the survivor count [1] was 4 of 10 and the survivor count [2] was 0 of 10.

With `O=[N+]([O-])O.[Ga]` the survivor count (dose: 100.0 mg/kg/injection, schedule: Q01DX005 (ip), vehicle: saline) was 12 of 12, the survivor count (dose: 200.0 mg/kg/injection, schedule: Q01DX005 (ip), vehicle: saline) was 7 of 8 and the survivor count [4] was 10 of 10.

For `Nc1nc(=S)c2ncn(C3CC(O)C(CO)O3)c2[nH]1` (centres undefined), the T/C (dose: 5.0 mg/kg/injection, schedule: Q04DX003 (ip), vehicle: saline with Tween-80) was 141 % of control, the T/C (dose: 20.0 mg/kg/injection, schedule: Q04DX003 (ip), vehicle: saline with Tween-80) was 142 % of control and the T/C (dose: 32.0 mg/kg/injection, schedule: Q04DX002 (ip), vehicle: saline with Tween-80) was 129 % of control. For the same molecule, the T/C (dose: 64.0 mg/kg/injection, schedule: Q04DX002 (ip), vehicle: saline with Tween-80) was 126 % of control, the T/C (dose: 80.0 mg/kg/injection, schedule: Q04DX003 (ip), vehicle: saline with Tween-80) was 140 % of control and the T/C (dose: 128.0 mg/kg/injection, schedule: Q04DX002 (ip), vehicle: saline with Tween-80) was 133 % of control. For the same molecule, the survivor count (dose: 160.0 mg/kg/injection, schedule: Q04DX003 (ip), vehicle: saline with Tween-80) was 9 of 10.

`CO[C@H]1C[C@@H]2CC[C@@H](C)[C@@](O)(O2)C(=O)C(=O)N2CCCC[C@H]2C(=O)O[C@H]([C@H](C)C[C@@H]2CC[C@@H](O)[C@H](OC)C2)CC(=O)[C@H](C)C=C(C)[C@@H](O)[C@@H](OC)C(=O)[C@H](C)C[C@H](C)/C=C/C=C/C=C1C` was tested, and the survivor count [3] was 10 of 10.

`CSC1SCC2C(=O)N(C)C(C(C)C)C(=O)OCC(NC(=O)c3cnc4ccccc4n3)C(=O)NC(C)C(=O)N(C)C1C(=O)N(C)C(C(C)C)C(=O)OCC(NC(=O)c1cnc3ccccc3n1)C(=O)NC(C)C(=O)N2C` (centres undefined) was tested, and the survivor count (dose: 50.0 micrograms/kg/injection, schedule: Q01DX004 (ip), vehicle: saline sonified) was 8 of 8 on day 10 and the survivor count (dose: 50.0 micrograms/kg/injection, schedule: Q03DX002 (ip), vehicle: saline sonified) was 8 of 8 on day 10.

In the case of `COc1ccc2c(c1)CCC(c1ccccc1)=C2c1ccc(OCCN2CCCC2)cc1`, the survivor count (dose: 50.0 mg/kg/injection, schedule: Q01DX009 (ip), vehicle: saline) is reported as 10 of 10 and the survivor count (dose: 100.0 mg/kg/injection, schedule: Q01DX009 (ip), vehicle: saline) is reported as 3 of 10.

For `COc1cccc2c1C(=O)c1c(O)c3c(c(O)c1C2=O)C[C@@](O)(C(C)=O)C[C@@H]3OC1CC(N(C)C)C(O)C(C)O1` (some centres undefined), the T/C (dose: 3.24 mg/kg/injection, schedule: Q04DX003 (ip), vehicle: water) was 125 % of control, the T/C (dose: 9.0 mg/kg/injection, schedule: Q04DX003 (ip), vehicle: water) was 130 % of control and the T/C (dose: 17.0 mg/kg/injection, schedule: Q07DX002 (iv), vehicle: saline) was 129 % of control.
